Results are given in words; binding and its absence hold for the method and conditions named. In cells and extracts the contact can be indirect. For part of these data: Binding calls can cover weak binding; strength is not graded here. For part of these data: Tags and fused reporters may be left off the sequences shown.
T1: mouse AIM2-Flag (pcDNA3-mAIM2-Flag) (mouse) (UniProt Q91VJ1)
T1 sequence: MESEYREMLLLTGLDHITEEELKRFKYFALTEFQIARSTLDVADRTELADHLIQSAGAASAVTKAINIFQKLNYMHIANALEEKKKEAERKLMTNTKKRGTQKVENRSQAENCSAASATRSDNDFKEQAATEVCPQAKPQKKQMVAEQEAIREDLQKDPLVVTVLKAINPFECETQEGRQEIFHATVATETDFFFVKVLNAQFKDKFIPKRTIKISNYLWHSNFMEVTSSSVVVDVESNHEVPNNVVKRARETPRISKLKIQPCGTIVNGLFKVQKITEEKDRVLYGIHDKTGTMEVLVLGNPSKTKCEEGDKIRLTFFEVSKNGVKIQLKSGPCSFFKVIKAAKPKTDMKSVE

T2: mouse IFI203-Flag (pCMV-p203-Myc-DDK) (UniProt O35368)
T2 sequence: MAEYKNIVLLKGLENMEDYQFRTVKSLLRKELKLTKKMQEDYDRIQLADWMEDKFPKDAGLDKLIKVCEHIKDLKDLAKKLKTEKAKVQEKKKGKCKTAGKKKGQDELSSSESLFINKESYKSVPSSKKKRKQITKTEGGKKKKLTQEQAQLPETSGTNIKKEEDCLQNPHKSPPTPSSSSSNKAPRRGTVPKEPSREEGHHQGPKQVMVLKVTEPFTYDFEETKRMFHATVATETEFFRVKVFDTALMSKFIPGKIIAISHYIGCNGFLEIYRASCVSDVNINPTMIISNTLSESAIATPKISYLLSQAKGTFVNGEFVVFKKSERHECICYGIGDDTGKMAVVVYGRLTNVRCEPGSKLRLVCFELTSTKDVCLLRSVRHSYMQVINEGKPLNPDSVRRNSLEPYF

T3: GFP-tagged mouse ASC pyrin domain (ASC-PYD-GFP) (mouse) (UniProt Q9EPB4)
T3 sequence: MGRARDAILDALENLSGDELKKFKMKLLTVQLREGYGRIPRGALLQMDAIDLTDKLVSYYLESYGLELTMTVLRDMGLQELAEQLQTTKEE


Columns and labels:
[1] = target: T1, mouse AIM2-Flag (pcDNA3-mAIM2-Flag) (mouse); test: co-IP; HEK-293A cells co-transfected, lysed 24 h later in RIPA buffer (50 mM Tris-HCl pH 7.2, 150 mM NaCl, 1% Triton X-100, 0.1% SDS, Benzonase); Flag-tagged protein precipitated with anti-Flag M2 and protein G Sepharose, washed 6 times with RIPA; HA-tagged MCMV proteins detected by immunoblot
[2] = target: T2, mouse IFI203-Flag (pCMV-p203-Myc-DDK); test: as above
[3] = target: T3, GFP-tagged mouse ASC pyrin domain (ASC-PYD-GFP) (mouse); test: co-IP; HEK-293A cells co-transfected, lysed 24 h later in RIPA buffer with Benzonase; GFP-tagged ASC constructs precipitated with GFP-Trap agarose, washed 6 times with RIPA; HA-tagged M83 or M84 detected by immunoblot
[4] = target: C-terminally HA-tagged M84 expressed by recombinant MCMV M84HA (mouse cytomegalovirus (MCMV), Smith strain); test: co-IP; ASC-deficient (Asc knockout) iBMDM infected with MCMV; co-immunoprecipitation with M84 (Supplementary Fig. 4b)
[5] = target: C-terminally HA-tagged M84 expressed by recombinant MCMV M84HA (mouse cytomegalovirus (MCMV), Smith strain); test: co-IP; iBMDM (wild type; also AIM2-deficient iBMDM) infected with MCMV M84HA or M28HA, lysed at 10 hpi in NP-40 buffer; HA-tagged viral protein precipitated with anti-HA affinity matrix (3F10), washes up to 500 mM NaCl; endogenous AIM2 and ASC detected by immunoblot
[6] = target: HA-tagged M28 expressed by recombinant MCMV M28HA (mouse cytomegalovirus (MCMV), Smith strain); test: as above

Molecule | binding [1] | binding [2] | binding [3] | binding [4] | binding [5] | binding [6]
HA-tagged MCMV M83 protein (expression plasmid in pcDNA3) (mouse cytomegalovirus (MCMV)) | no binding | no binding | – | – | – | –
HA-tagged MCMV M82 protein (expression plasmid in pcDNA3) (mouse cytomegalovirus (MCMV)) | no binding | – | – | – | – | –
HA-tagged MCMV M84 protein (expression plasmid in pcDNA3) (mouse cytomegalovirus (MCMV)) | binds | binds | binds | – | – | –
AIM2, endogenous in immortalized bone marrow-derived macrophages (protein, UniProt Q91VJ1 1-354) MESEYREMLLLTGLDHITEEELKRFKYFALTEFQIARSTLDVADRTELADHLIQSAGAASAVTKAINIFQKLNYMHIANALEEKKKEAERKLMTNTKKRGTQKVENRSQAENCSAASATRSDNDFKEQAATEVCPQAKPQKKQMVAEQEAIREDLQKDPLVVTVLKAINPFECETQEGRQEIFHATVATETDFFFVKVLNAQFKDKFIPKRTIKISNYLWHSNFMEVTSSSVVVDVESNHEVPNNVVKRARETPRISKLKIQPCGTIVNGLFKVQKITEEKDRVLYGIHDKTGTMEVLVLGNPSKTKCEEGDKIRLTFFEVSKNGVKIQLKSGPCSFFKVIKAAKPKTDMKSVE | – | – | – | no binding (only in ASC-deficient iBMDM) | binds | no binding

Source: paper PMC10817922
